According to the supplement of paper PMC12872613:
Counter-ions that a name gives are not always drawn. Some of the results follow. Cut-off read from the data, not from the text of the source: active = 0.7 or more and inactive = the rest. Repeats are few or missing, and single values can be far off.

Each compound was assayed on MiaPaCa-2 CLSA-25 (assay: cell death relative to DMSO vehicle (fraction); higher = more cytotoxic). Details: 5 µM; treatment time 48 h; medium cystine 25 µM.

| SMILES | cell death |
| --- | --- |
| CN1CCC(=C2c3ccccc3CC(=O)c3sccc32)CC1 [Ketotifen fumarate] | inactive: 0.148 |
| COc1ccc(-c2cc(=O)c3c(O)cc(O)cc3o2)cc1O [Diosmetin] | inactive: 0.163 |
| O=C1O[C@H]([C@@H](O)CO)C(O)=C1OP(=O)(O)O [Sodium L-ascorbyl-2-phosphate] | inactive: 0.0952 |
| COc1ccc(S(=O)(=O)Nc2nc(-c3cccc([N+](=O)[O-])c3)cs2)cc1OC | inactive: 0.151 |
| O=C1c2ccccc2C(=O)c2c1ccc(O)c2O [Alizarin] | inactive: 0.00749 |
| CS(=O)(=O)c1ccc(-c2nnc(/C=C/c3nnc(-c4ccc(C#N)cc4)o3)n2-c2ccccc2Cl)nc1 | inactive: 0.172 |
| NCc1ccc(S(N)(=O)=O)cc1 [Mafenide hydrochloride] | inactive: 0.473 |
| C[C@]12C=CC(=O)C=C1CC[C@H]1[C@@H]3C[C@@H](O)[C@](O)(C(=O)CO)[C@@]3(C)C[C@H](O)[C@@]12F [Triamcinolone] | inactive: 0.159 |
| O=C(Nc1cc(Cl)cc2c1[nH]c1cnccc12)c1cccnc1 | inactive: 0.0883 |
| S=c1[nH]cnc2nc[nH]c12 [Mercaptopurine] | inactive: 0.0305 |
| CC1=C(/C=C/C(C)=C/C=C/C(C)=C/C(=O)Nc2ccc(O)cc2)C(C)(C)CCC1 [Fenretinide] | inactive: 0.0795 |
| C=C1CC[C@H](O)C/C1=C/C=C1\CCC[C@]2(C)[C@@H]([C@H](C)/C=C/[C@H](C)C(C)C)CC[C@@H]12 [Vitamin D2] | inactive: 0.132 |

Sorted by molar mass (rising): three of the compounds above.

| SMILES | cell death |
| --- | --- |
| S=c1[nH]cnc2nc[nH]c12 [Mercaptopurine] | inactive: 0.0305 |
| CN1CCC(=C2c3ccccc3CC(=O)c3sccc32)CC1 [Ketotifen fumarate] | inactive: 0.148 |
| C[C@]12C=CC(=O)C=C1CC[C@H]1[C@@H]3C[C@@H](O)[C@](O)(C(=O)CO)[C@@]3(C)C[C@H](O)[C@@]12F [Triamcinolone] | inactive: 0.159 |
